Measurements published in PubChem BioAssay AID248 (DTP/NCI, 2004).
The list shows only some results of the screen, not a fair sample: it is rich in T/C values a quarter to a half above the control, in often repeated tests (any T/C) and in doses without a T/C. Further doses and runs are listed elsewhere. T/C is the treated group as % of the vehicle group. Some doses have a count of surviving animals in place of a T/C: the source files T/C as zero there, which appears to mark a toxic dose or a test without result, not a measured value. Some doses without a T/C left all or most animals alive at the check, yet need not have been tolerated: survival well below the control is almost never listed, so the zero probably covers shortened survival too. Survivors were counted at the toxicity check, usually on the fifth day, unless a day is given; later deaths do not show. Schedule codes are those of the source, taken here to give the interval after Q, in days (D) or hours (H), and the number of doses after X. Some schedules carry Z or #; the key to these is not given. For survival time, the PubChem record calls one and a half times the control and up active, and a quarter to a half above the control has no call in these data; cut-offs in other NCI protocols can differ. Some T/C values are followed by the survivors on the day toxicity was checked, most often the fifth; where none is given, no animal had died by that day.

Test system: L1210 leukemia ip in BDF1 mice, survival T/C
Test: NCI In Vivo Anticancer Drug Screen. Data for tumor model L1210 Leukemia (intraperitoneal) in B6D2F1 (BDF1) mice
Conditions: T/C endpoint: mean survival time, higher T/C = longer survival
[1] = dose: 400.0 mg/kg/injection, schedule: Q04DX003 (ip), vehicle: saline with Tween-80
[2] = dose: 200.0 mg/kg/injection, schedule: Q04DX003 (ip), vehicle: saline with Tween-80

In the case of `CC1CN(C(=N)C#N)C(C)CN1C(=N)C#N` (stereo not drawn), the survivor count (dose: 50.0 mg/kg/injection, schedule: Q01DX009 (ip), vehicle: saline with Tween-80) is reported as 6 of 6, the survivor count (dose: 200.0 mg/kg/injection, schedule: Q01DX009 (ip), vehicle: saline with Tween-80) is reported as 3 of 6 and the survivor count [1] is reported as 4 of 6.
For `N/C=N/O`, the T/C (dose: 100.0 mg/kg/injection, schedule: Q01DX009 (ip), vehicle: saline) was 126 % of control, the T/C (dose: 200.0 mg/kg/injection, schedule: Q01DX009 (ip), vehicle: saline) was 132 % of control [5 of 6 alive] and the T/C (dose: 400.0 mg/kg/injection, schedule: Q01DX009 (ip), vehicle: saline) was 133 % of control.
`CC1=NN(c2ccccc2)C(=O)C1(Br)Br` was tested, and the survivor count [2] was 3 of 6 and the survivor count [1] was 0 of 6.
`c1cc2c3c(c1)nc(CCc1nc4cccc5c4n1CCC5)n3CCC2` was tested, and the survivor count [2] was 6 of 6.
With `CC(C)C(NC(=O)OCc1ccccc1)C(=O)O` (stereo not drawn) the survivor count (dose: 150.0 mg/kg/injection, schedule: Q04DX003 (ip), vehicle: saline) was 5 of 6 and the survivor count (dose: 300.0 mg/kg/injection, schedule: Q01DX001 (ip), vehicle: saline) was 0 of 6.
For `CCOC(=O)Cc1ccc(N)cc1`, the survivor count (dose: 400.0 mg/kg/injection, schedule: Q01DX001 (ip), vehicle: Klucel (hydroxypropylcellulose) (HPC)) was 3 of 3.
`O=NN(CCCl)C(=O)Nc1ccc2c(c1)OCO2` was tested, and the T/C (dose: 1.5 mg/kg/injection, schedule: Q01DX009 (ip), vehicle: other) was 144 % of control, the T/C (dose: 2.5 mg/kg/injection, schedule: Q01DX009 (ip), vehicle: other) was 144 % of control and the T/C (dose: 13.0 mg/kg/injection, schedule: Q01DX001 (ip), vehicle: other) was 139 % of control. For the same molecule, the T/C (dose: 14.0 mg/kg/injection, schedule: Q01DX009 (ip), vehicle: carboxymethylcellulose (CMC)) was 129 % of control, the T/C (dose: 33.0 mg/kg/injection, schedule: Q01DX009 (ip), vehicle: carboxymethylcellulose (CMC)) was 138 % of control and the T/C (dose: 44.0 mg/kg/injection, schedule: Q01DX001 (ip), vehicle: other) was 141 % of control. For the same molecule, the T/C (dose: 50.0 mg/kg/injection, schedule: Q01DX009 (ip), vehicle: carboxymethylcellulose (CMC)) was 142 % of control, the survivor count (dose: 58.0 mg/kg/injection, schedule: Q01DX015 (ip), vehicle: saline) was 6 of 6 and the survivor count (dose: 66.0 mg/kg/injection, schedule: Q01DX009 (ip), vehicle: other) was 6 of 6. For the same molecule, the survivor count (dose: 88.0 mg/kg/injection, schedule: Q01DX015 (ip), vehicle: saline) was 6 of 6, the survivor count (dose: 100.0 mg/kg/injection, schedule: Q01DX009 (ip), vehicle: other) was 3 of 6 and the T/C (dose: 133.0 mg/kg/injection, schedule: Q01DX001 (ip), vehicle: saline) was 142 % of control. For the same molecule, the survivor count (dose: 133.0 mg/kg/injection, schedule: Q01DX015 (ip), vehicle: carboxymethylcellulose (CMC)) was 5 of 6, the T/C (dose: 200.0 mg/kg/injection, schedule: Q01DX001 (ip), vehicle: carboxymethylcellulose (CMC)) was 147 % of control and the survivor count (dose: 200.0 mg/kg/injection, schedule: Q01DX015 (ip), vehicle: carboxymethylcellulose (CMC)) was 0 of 6. The T/C (dose: 300.0 mg/kg/injection, schedule: Q01DX001 (ip), vehicle: carboxymethylcellulose (CMC)) was 143 % of control and the T/C (dose: 400.0 mg/kg/injection, schedule: Q01DX001 (ip), vehicle: carboxymethylcellulose (CMC)) was 133 % of control.
`CN(C)c1ccnc(N(C)C)n1` was tested, and the survivor count (dose: 62.0 mg/kg/injection, schedule: Q01DX Z (ip), vehicle: methylcellulose (MC)) was 1 of 6 and the survivor count (dose: 125.0 mg/kg/injection, schedule: Q01DX Z (ip), vehicle: methylcellulose (MC)) was 0 of 6.
In the case of `CN(C)CCCN=C=NC1CCCCC1`, the survivor count (dose: 400.0 mg/kg/injection, schedule: Q04DX003 (ip), vehicle: Klucel (hydroxypropylcellulose) (HPC)) is reported as 6 of 6.
For `CC(=O)[O][Hg][c]1ccc(Cl)cc1`, the survivor count (dose: 100.0 mg/kg/injection, schedule: Q01DX001 (ip), vehicle: saline) was 0 of 4, the survivor count (dose: 200.0 mg/kg/injection, schedule: Q01DX001 (ip), vehicle: saline) was 0 of 4 and the survivor count (dose: 400.0 mg/kg/injection, schedule: Q01DX001 (ip), vehicle: saline) was 0 of 4.
With `CCc1ccccc1NC(=S)NC1CCCCC1` the survivor count (dose: 400.0 mg/kg/injection, schedule: Q01DX009 (ip), vehicle: Klucel (hydroxypropylcellulose) (HPC)) was 0 of 6.
In the case of `Cc1c(-c2ccccc2)sc(N)c1C#N`, the survivor count (dose: 100.0 mg/kg/injection, schedule: Q04DX002 (ip), vehicle: saline with Tween-80) is reported as 3 of 3 and the survivor count (dose: 400.0 mg/kg/injection, schedule: Q04DX002 (ip), vehicle: saline with Tween-80) is reported as 3 of 3.
